# Data: paper PMC6305323
# These are yes or no findings as the source states them, for the method shown. Some results given as binding are weak or reduced against the parent protein; the word gives no strength.
# T1: OsJAZ5 (rice (Oryza sativa cv. Dongjin)) (UniProt Q84R94)
# T1 sequence: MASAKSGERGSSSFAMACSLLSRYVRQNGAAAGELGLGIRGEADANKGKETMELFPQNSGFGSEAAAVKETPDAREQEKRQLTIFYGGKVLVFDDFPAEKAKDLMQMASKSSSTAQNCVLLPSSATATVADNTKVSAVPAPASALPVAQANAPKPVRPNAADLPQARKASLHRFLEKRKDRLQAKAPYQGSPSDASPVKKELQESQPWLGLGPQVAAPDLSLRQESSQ
# T2: OsJAZ3 (rice (Oryza sativa cv. Dongjin)) (UniProt Q8GSI0)
# T2 sequence: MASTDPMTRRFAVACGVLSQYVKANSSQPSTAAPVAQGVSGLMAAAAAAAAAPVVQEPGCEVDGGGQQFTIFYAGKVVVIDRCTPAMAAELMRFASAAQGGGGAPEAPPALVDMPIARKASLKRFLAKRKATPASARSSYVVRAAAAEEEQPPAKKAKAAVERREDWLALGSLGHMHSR
# T3: OsJAZ12 (rice (Oryza sativa cv. Dongjin)) (UniProt Q6Z2K1)
# T3 sequence: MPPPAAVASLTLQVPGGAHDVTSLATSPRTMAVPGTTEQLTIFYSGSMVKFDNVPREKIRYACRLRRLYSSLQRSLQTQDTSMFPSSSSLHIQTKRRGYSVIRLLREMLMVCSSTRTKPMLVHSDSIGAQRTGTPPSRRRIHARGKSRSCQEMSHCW
# T4: OsJAZ1 (rice (Oryza sativa cv. Dongjin)) (UniProt Q7XEZ1)
# T4 sequence: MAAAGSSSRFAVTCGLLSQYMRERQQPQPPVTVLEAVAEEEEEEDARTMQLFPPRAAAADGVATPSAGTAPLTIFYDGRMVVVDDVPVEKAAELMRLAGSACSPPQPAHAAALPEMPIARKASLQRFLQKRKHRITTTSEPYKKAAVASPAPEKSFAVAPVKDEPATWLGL
# T5: OsJAZ7 (rice (Oryza sativa cv. Dongjin)) (UniProt Q69P94)
# T5 sequence: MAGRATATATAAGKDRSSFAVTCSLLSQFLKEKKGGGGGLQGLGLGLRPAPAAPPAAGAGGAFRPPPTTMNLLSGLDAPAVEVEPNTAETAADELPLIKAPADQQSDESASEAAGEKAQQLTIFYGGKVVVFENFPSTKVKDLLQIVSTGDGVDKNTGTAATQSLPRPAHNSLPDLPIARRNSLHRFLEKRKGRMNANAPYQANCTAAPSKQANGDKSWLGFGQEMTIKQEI
# T6: OsJAZ9 (Jasmonate ZIM-domain protein 9) (rice (Oryza sativa cv. Dongjin)) (UniProt Q6ZJU3)
# T6 sequence: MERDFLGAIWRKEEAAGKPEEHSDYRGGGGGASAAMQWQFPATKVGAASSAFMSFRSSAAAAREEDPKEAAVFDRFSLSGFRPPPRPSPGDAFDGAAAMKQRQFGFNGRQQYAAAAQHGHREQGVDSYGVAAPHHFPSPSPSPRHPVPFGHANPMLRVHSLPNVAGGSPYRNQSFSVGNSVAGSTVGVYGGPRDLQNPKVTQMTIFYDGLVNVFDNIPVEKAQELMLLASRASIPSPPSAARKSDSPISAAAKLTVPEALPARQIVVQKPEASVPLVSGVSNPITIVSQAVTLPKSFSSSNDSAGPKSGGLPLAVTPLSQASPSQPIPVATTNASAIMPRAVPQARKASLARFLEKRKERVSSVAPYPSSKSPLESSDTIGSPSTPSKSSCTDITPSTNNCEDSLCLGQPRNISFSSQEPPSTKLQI
# T7: OsJAZ8 (rice (Oryza sativa cv. Dongjin)) (UniProt Q6ES51)
# T7 sequence: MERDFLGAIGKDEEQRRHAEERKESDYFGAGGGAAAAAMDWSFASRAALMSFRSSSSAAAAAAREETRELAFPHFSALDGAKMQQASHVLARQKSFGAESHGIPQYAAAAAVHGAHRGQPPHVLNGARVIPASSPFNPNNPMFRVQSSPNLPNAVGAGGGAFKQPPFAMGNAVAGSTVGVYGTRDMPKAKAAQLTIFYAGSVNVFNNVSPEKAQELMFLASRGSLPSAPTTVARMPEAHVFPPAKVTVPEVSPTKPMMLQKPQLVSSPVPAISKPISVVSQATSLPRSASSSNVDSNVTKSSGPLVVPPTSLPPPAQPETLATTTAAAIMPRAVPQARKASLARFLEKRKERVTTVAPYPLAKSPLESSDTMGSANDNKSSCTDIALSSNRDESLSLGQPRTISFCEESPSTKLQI
# Columns and labels:
# Experiment in all cases: two-hybrid; Matchmaker Gold (Clontech), Y2H Gold yeast; JAZs as bait in pGBKT7, DELLAs as prey in pGADT7; growth on DDO (-Leu/-Trp) media with 250 ng/mL Aureobasidin A, 5 days in the dark at 30°C
# [1] = biological target: T1, OsJAZ5 (rice (Oryza sativa cv. Dongjin))
# [2] = biological target: T2, OsJAZ3 (rice (Oryza sativa cv. Dongjin))
# [3] = biological target: T3, OsJAZ12 (rice (Oryza sativa cv. Dongjin))
# [4] = biological target: T4, OsJAZ1 (rice (Oryza sativa cv. Dongjin))
# [5] = biological target: T5, OsJAZ7 (rice (Oryza sativa cv. Dongjin))
# [6] = biological target: T6, OsJAZ9 (Jasmonate ZIM-domain protein 9) (rice (Oryza sativa cv. Dongjin))
# [7] = biological target: T7, OsJAZ8 (rice (Oryza sativa cv. Dongjin))
binding [1],binding [2],binding [3],binding [4],binding [5],binding [6],binding [7],Binder
no binding,no binding,no binding,no binding,no binding,binds,binds,"SLENDER RICE 1 (SLR1) (protein, UniProt Q7G7J6 1-625) MKREYQEAGGSSGGGSSADMGSCKDKVMAGAAGEEEDVDELLAALGYKVRSSDMADVAQKLEQLEMAMGMGGVSAPGAADDGFVSHLATDTVHYNPSDLSSWVESMLSELNAPLPPIPPAPPAARHASTSSTVTGGGGSGFFELPAAADSSSSTYALRPISLPVVATADPSAADSARDTKRMRTGGGSTSSSSSSSSSLGGGASRGSVVEAAPPATQGAAAANAPAVPVVVVDTQEAGIRLVHALLACAEAVQQENFAAAEALVKQIPTLAASQGGAMRKVAAYFGEALARRVYRFRPADSTLLDAAFADLLHAHFYESCPYLKFAHFTANQAILEAFAGCHRVHVVDFGIKQGMQWPALLQALALRPGGPPSFRLTGVGPPQPDETDALQQVGWKLAQFAHTIRVDFQYRGLVAATLADLEPFMLQPEGEADANEEPEVIAVNSVFELHRLLAQPGALEKVLGTVHAVRPRIVTVVEQEANHNSGSFLDRFTESLHYYSTMFDSLEGGSSGQAELSPPAAGGGGGTDQVMSEVYLGRQICNVVACEGAERTERHETLGQWRNRLGRAGFEPVHLGSNAYKQASTLLALFAGGDGYRVEEKEGCLTLGWHTRPLIATSAWRVAAA"
no binding,no binding,no binding,no binding,no binding,no binding,no binding,"SLR1-LIKE protein SLRL1 (protein, UniProt B7F9I5 1-495) MAMDTFPFQWPMDPAASSGLDAGFLPPPAAVAPDDGVGYYDPPAGADVDAAALPEFAAAFPPCAPDAAAAVLAMRREEEEVAGIRLVHLLMSCAGAIEAGDHALASAQLADSHAALAAVSAASGIGRVAVHFTTALSRRLFPSPVAPPTTDAEHAFLYHHFYEACPYLKFAHFTANQAILEAFHGCDHVHVIDFSLMQGLQWPALIQALALRPGGPPFLRITGIGPPSPTGRDELRDVGLRLADLARSVRVRFSFRGVAANSLDEVRPWMLQIAPGEAVAFNSVLQLHRLLGDPADQAPIDAVLDCVASVRPKIFTVIEQEADHNKTGFLDRFTEALFYYSAVFDSLDAASASGGAGNAMAEAYLQREICDIVCGEGAARRERHEPLSRWRDRLTRAGLSAVPLGSNALRQARMLVGLFSGEGHSVEEADGCLTLGWHGRPLFSASAWEAAGDGGGDNNNNSNSNVSGSSGSDSNNSGSSNGKSSGARDGSSVCL"
no binding,no binding,no binding,no binding,no binding,binds,no binding,"SLR1-LIKE (SLRL) protein SLRL2 (protein, UniProt Q6F368 1-500) MAQFGGFGGWSAMDVAAAAAAALGNVSGAVYHADPAAAVYASLVPGMAVVPGRAPPSAVQIEAARRWKELEKMALRSVNLMVTCAGAIQAGDYAAAAGSLSDAREIFAKMPTTRTGIGRVLTHFADALAERLFPAFPQSAPPPPPPRGEQRELFRGFYEAGPYLKFAHLAANQAILEAFEGCNSVHVIDFALTDGIQWPSLIQALAVRPGGPPFLRITGIGPHAAGNRDELRDVGLRLAEFARSCSVPFAFRGIAADQLDGLRPWMFQVAPGEAVAINSVLQLHRLLVDQDAAAAASFPAPIDGVLDWVASMNPRVFTVVEQEADHNKSSLLERFTNSLFYYASMFDSLEAISRHGGGDGAGNPLAEAYLQGEIADIVSREGSSRVERHEQMPRWVERLRRGGMTQLPLGATGLWQAAMQLREFSGAGFGVQENGGFLTLTWHSQRLYSASAWRATAGKKMTMMASGAADAMEESQNSNTNGGGGGSSGGGHGALNQIMQ"
